Reference: the RNAGym collection of RNA variant scans (doi:10.1126/science.aae0568)
This sample is rich in variants without activity.

B1: tRNA (parent)
chain: GUUCCGUUGGCGUAAUGGUAACGCGUCUCCCUCCUAAGGAGAAGACUGCGGGUUCGAGUCCCGUACGGAACG

Variants of: B1
Test: yeast fitness relative to wild type (ratio to wild type); higher = fitter; tRNA-Arg(CCU), competitive growth, 37 C, YPD
Outline: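 A pool of Saccharomyces cerevisiae strains, each with a tRNA-Arg(CCU) gene variant at the native genomic locus, was competed in YPD at 37°C for 24 hours across six parallel replicates. The variants had been chemically synthesised at a 3% per-site mutation rate over 69 sites, and gene amplicons before and after competition were read by 100-nucleotide paired-end sequencing. Darwinian fitness relative to wild type rested on changes in genotype frequencies. Genotypes required ≥ 100 starting reads, and estimates < 0.5 were set to 0.5.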

Row | Variant | yeast fitness
1 | G10C A14C C27A C29G A57C A65U | ≤ 0.5
2 | G10C A21C C27A C34A C49U | ≤ 0.5
3 | G10C A21G C29A A43U C55A | 0.651
4 | G10C A42C A43G | ≤ 0.5
5 | G10C A45U | 0.778
6 | G10C A70G | 0.644
7 | G10C C22A C24G U53A G63A | ≤ 0.5
8 | G10C C22A G56C U59C | ≤ 0.5
9 | G10C C24U C29A A45U C46G U47A G50A C61A | ≤ 0.5
10 | G10C C27G U32A | ≤ 0.5
11 | G10C C27U A40U A45U | ≤ 0.5
12 | G10C C27U G56A | ≤ 0.5
13 | G10C C29U C31U | ≤ 0.5
14 | G10C C30G C46U | ≤ 0.5
15 | G10C C31A A40U C46U | ≤ 0.5
16 | G10C C33A A40U A69C | ≤ 0.5
17 | G10C C60G | ≤ 0.5
18 | G10C G18A C22U | 0.633
19 | G10C G23A C27U | ≤ 0.5
20 | G10C G25C U26C A70U | ≤ 0.5
21 | G10C G39A | 0.563
22 | G10C G41C C62U C66G A70G | ≤ 0.5
23 | G10C U19A C29G C34U | ≤ 0.5
24 | G10C U26A C34G U53A A65U | ≤ 0.5

Row | Variant | yeast fitness
25 | G10C U26A C49U G68A A69C | ≤ 0.5
26 | G10C U32C C66G | ≤ 0.5
27 | G10C U47G C62U A65U | ≤ 0.5
28 | G10C U47G G68U | ≤ 0.5
29 | G10C U54A A69U | ≤ 0.5
30 | C11A A15C C24A C31G G58C G67C | ≤ 0.5
31 | C11A A15G A20G A37C G50A | ≤ 0.5
32 | C11A A21C A40C U64C | ≤ 0.5
33 | C11A A36G U54G | ≤ 0.5
34 | C11A A37U A69U | ≤ 0.5
35 | C11A A42G A43U C46U C55G U59A G63A | ≤ 0.5
36 | C11A A42U G50A | ≤ 0.5
37 | C11A A43G C60A A65C | ≤ 0.5
38 | C11A A43G U54C C66G G67C | ≤ 0.5
39 | C11A A45U U54C U64A | ≤ 0.5
40 | C11A C22G C34A G41A | ≤ 0.5
41 | C11A C22U A45U | ≤ 0.5
42 | C11A C24U G48A | ≤ 0.5
43 | C11A C24U U32A U35C G51A G58A | ≤ 0.5
44 | C11A C29G C55A | ≤ 0.5
45 | C11A C30A G50C | ≤ 0.5
46 | C11A C49U G51A A65U | ≤ 0.5
47 | C11A C60G C62G | ≤ 0.5
48 | C11A G12A U16A G23C G56A | ≤ 0.5

Row | Variant | yeast fitness
49 | C11A G12C G39A G63A | ≤ 0.5
50 | C11A G23C U32G C34A G52A | ≤ 0.5
51 | C11A G25A C30U A57C | ≤ 0.5
52 | C11A G25C C34G C66U | ≤ 0.5
53 | C11A G39A G52C C55G | ≤ 0.5
54 | C11A G48A C55U | ≤ 0.5
55 | C11A U13A A20U G50C U53A A57U A65U | ≤ 0.5
56 | C11A U13C C27A C30G | ≤ 0.5
57 | C11A U16C A21G C62A | ≤ 0.5
58 | C11A U16C U32G C49G | ≤ 0.5
59 | C11A U19C A37G U53G | ≤ 0.5
60 | C11A U28C C33U G41A G52C | ≤ 0.5
61 | C11A U35G C46A C49U | ≤ 0.5
62 | C11G A14C A37C G44C C60G | ≤ 0.5
63 | C11G A14U C24A G52C A57C | ≤ 0.5
64 | C11G A15U A21G C30U | ≤ 0.5
65 | C11G A15U A57C | ≤ 0.5
66 | C11G A15U C22U A42G G68C | ≤ 0.5
67 | C11G A20C C55A C62A | ≤ 0.5
68 | C11G A20U C24A G25C | ≤ 0.5
69 | C11G A37G G39A C62U | ≤ 0.5
70 | C11G A37G G39A G48A C62U | ≤ 0.5
71 | C11G A43U U54G G67U | ≤ 0.5
72 | C11G C22A A36C C61G A69C | ≤ 0.5

Row | Variant | yeast fitness
73 | C11G C24U C30G C31A A43G | ≤ 0.5
74 | C11G C27A G56C C61A | ≤ 0.5
75 | C11G C27U G51C C62G | ≤ 0.5
76 | C11G C29G C33U C46A C49G | 0.564
77 | C11G C30A U47G U53C G67C | ≤ 0.5
78 | C11G C30U G67C | ≤ 0.5
79 | C11G C31A | 0.508
80 | C11G C31A C33U G39C | ≤ 0.5
81 | C11G C33G A37U A45U | 0.64
82 | C11G C33U G38C U64C | ≤ 0.5
83 | C11G C46A G56C | ≤ 0.5
84 | C11G G18A A21G | ≤ 0.5
85 | C11G G18C A21G A40U G48A | ≤ 0.5
86 | C11G G23C A37G G48C G52C C55U | ≤ 0.5
87 | C11G G52C A57U A69U | ≤ 0.5
88 | C11G U13C A37U | ≤ 0.5
89 | C11G U16C A21U C30G G50C | ≤ 0.5
90 | C11G U16C C22U C60G G68U | ≤ 0.5
91 | C11G U19G | 0.577
92 | C11G U26A G44C C62A | ≤ 0.5
93 | C11G U26A U53A | ≤ 0.5
94 | C11G U32A A37G A70U | ≤ 0.5
95 | C11G U32A C66U | ≤ 0.5
96 | C11G U32G U54A U59A G67A | ≤ 0.5

Row | Variant | yeast fitness
97 | C11G U35C C46U C61U A69C | ≤ 0.5
98 | C11G U53C C55U | ≤ 0.5
99 | C11U A14C C22G C27G | ≤ 0.5
100 | C11U A15C A21G C24G U28A C61U | ≤ 0.5
101 | C11U A15U | 0.757
102 | C11U A15U C34A G68A A70U | ≤ 0.5
103 | C11U A15U U16A A37C A65C A70C | ≤ 0.5
104 | C11U A20C C55U C66G | ≤ 0.5
105 | C11U A20G C27G C34G U47A A65G C66U | ≤ 0.5
106 | C11U A20G G23C C31U C46G A70U | ≤ 0.5
107 | C11U A20U G39A A57U | ≤ 0.5
108 | C11U A21C A42G G58A A69C A70G | ≤ 0.5
109 | C11U A21C C27G G39C A65C | ≤ 0.5
110 | C11U A36U A43C A57G | 1.1
111 | C11U A42C | 0.91
112 | C11U A45U C66A | 0.659
113 | C11U A65G C66G G68C | ≤ 0.5
114 | C11U C22G C34A | ≤ 0.5
115 | C11U C22U C49U C66U | ≤ 0.5
116 | C11U C24U C34U C46A | ≤ 0.5
117 | C11U C24U G41A C62A | ≤ 0.5
118 | C11U C27G A36G G63C C66U | ≤ 0.5
119 | C11U C27U G38C A40U A45G G52A A65C | ≤ 0.5
120 | C11U C29A U35A G56A | ≤ 0.5

Row | Variant | yeast fitness
121 | C11U C29U C30U U59A | ≤ 0.5
122 | C11U C29U C46G C62U | ≤ 0.5
123 | C11U C29U C61U U64C | ≤ 0.5
124 | C11U C29U G39A | 0.619
125 | C11U C30A G39A U47A G63C | ≤ 0.5
126 | C11U C30U G44C G51A C61U | ≤ 0.5
127 | C11U C33A C34A U35C A36C G39C U47A U59C | ≤ 0.5
128 | C11U C34U G38A G44C | 0.541
129 | C11U C34U G38A G44C C60U C61U | ≤ 0.5
130 | C11U C55A G58C G67C | ≤ 0.5
131 | C11U G12A C31U U53C A65C | ≤ 0.5
132 | C11U G17C A21U A37C G56C | ≤ 0.5
133 | C11U G18C A40C G63A | ≤ 0.5
134 | C11U G25A C62U A70C | 0.67
135 | C11U G38C C46G A65U | ≤ 0.5
136 | C11U G50C C66A | ≤ 0.5
137 | C11U G51C | 0.718
138 | C11U G56A | 0.901
139 | C11U U19C C33G A37U | ≤ 0.5
140 | C11U U19G A20U | 0.764
141 | C11U U19G A45C C60G | ≤ 0.5
142 | C11U U26A C66U | ≤ 0.5
143 | C11U U26G C46U C60A | ≤ 0.5
144 | C11U U32A G63A | ≤ 0.5

Row | Variant | yeast fitness
145 | C11U U47A C60U A69C | ≤ 0.5
146 | G12A A15C A36U A65C | ≤ 0.5
147 | G12A A15C G58C | ≤ 0.5
148 | G12A A15U C22A U54A | ≤ 0.5
149 | G12A A21C C31U | ≤ 0.5
150 | G12A A21C U59A G67A | ≤ 0.5
151 | G12A A43U C62G A65G | ≤ 0.5
152 | G12A A45G U47C U59A C66U | ≤ 0.5
153 | G12A C27A C31G A42C C61G | ≤ 0.5
154 | G12A C29G C34G | ≤ 0.5
155 | G12A C30U U32G A36U G39C | ≤ 0.5
156 | G12A C31U C55G | ≤ 0.5
157 | G12A C34U A45U C49G | ≤ 0.5
158 | G12A C49U C60G | ≤ 0.5
159 | G12A G50C G67A G68A | ≤ 0.5
160 | G12A U13A A37G A40G U59A | ≤ 0.5
161 | G12A U13C C22A U26C A69C | ≤ 0.5
162 | G12A U16A A21G C27G C46U | ≤ 0.5
163 | G12A U19G U35C A40U G58A G68A | ≤ 0.5
164 | G12C A20U C22A | 0.927
165 | G12C A21C C66A | ≤ 0.5
166 | G12C A36C A37U | ≤ 0.5
167 | G12C C33A | 0.682
